Source: ChEMBL document CHEMBL3988442, “University of Dundee, Small-Polar-MMV Screening Library” (2021).

Each number is a percent effect as filed. How 0% and 100% were set is not recorded. Most values in the screen are low, and negative values occur. This is an unselected part of the compounds tested. A dash means the value is not listed here; it may have been measured.

Mtb heat-shock: 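Assay on Mycobacterium tuberculosis, filed only as a heat shock assay from Cornell; the read-out is not stated. The concentration is filed as 10 mM, unlikely as a test dose, so the dose is not known. Higher reads as stronger inhibition (inferred: compounds with an IC50 in retests scored well above the rest). Of about 69,000 compounds tested this way, about 930 (1.4%) reached 50% or more in at least one test.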
Mtb growth Cornell: 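Whole-cell assay for inhibitors of Mycobacterium tuberculosis growth, labelled Cornell in the record; the read-out is not stated. The concentration is filed as 10 mM, unlikely as a test dose, so the dose is not known. The record gives no direction; compounds strong in two other growth screens of this library score well above the rest, so higher reads as stronger inhibition. Size under these conditions: about 53,000 compounds, about 900 of them at 50% or above in at least one test.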

structure | Mtb heat-shock | Mtb growth Cornell
CC(C)N(C)Cc1cnc2n1CCN(S(=O)(=O)c1ccccc1)C2.O=C(O)C(F)(F)F | -26.7 | -
Cc1cc(C(=O)NCC2(N(C)C)CCCC2)c(C)n1-c1cccnc1 | -27.83 | 13.47
CC(C)c1ncncc1C(=O)N1CCN(Cc2ccccn2)CC1 | 4.907 | -1.111
O=C(c1cc[nH]c(=O)c1)N1CCn2c(nnc2-c2ccccc2)C1 | 8.62 | 6.552
COc1cc(CCC(=O)NC(C)(C)C)ccc1OCC(F)(F)F | -4.33 | -2.893
CS(=O)(=O)N1CCC(CNC(=O)C2CCCC2)CC1 | -13.57 | -12.14
CC(C)n1ncc2c1NC(=O)CSC2C(C)(C)C (centres undefined) | -7.375 | -
Cc1ccc(S(N)(=O)=O)cc1C(=O)NC1CCCC1 | 5.836 | 10.89
CCN(C(=O)NCCc1cccc(F)c1F)C(C)CS(C)(=O)=O (centres undefined) | 10.48 | 22.5
Cc1cccc(CN2C[C@@H](F)[C@@H](OCc3nc4ccccc4[nH]3)C2)n1 | -4.371 | 6.397
Cc1cccc(-c2nc(C)nn2CC(=O)NCC(C)C)c1 | 7.585 | -
Cc1cc(N2CCC(c3n[nH]c4nccnc34)C2)ncn1 (centres undefined) | 0.6366 | -54.27
COC1CN(C(=O)NC2CCCC2)CCC(=O)N(C)c2ccccc21 (centres undefined) | 21.32 | 3.738
CN(Cc1cccs1)C(=O)CN1C(=O)c2cc(Cl)c(Cl)cc2C1=O | 0.8872 | 12.38
CCCNC(=O)c1cc2c(s1)CCN2c1ncccn1 | 12.58 | -5.971
CC(C)Cc1noc(CN2CCOCC2C)n1 (centres undefined) | 11.86 | 5.203
CCOc1ccc(NC2CCN(C3CC3)C2=O)cn1 (centres undefined) | 6.205 | -26.96
CC(=O)N(C)CC(=O)Nc1cc(C(F)(F)F)c[nH]c1=O | 3.415 | -
Cc1c(C(=O)N2CCN(c3ccccn3)CC2)n(C)c2ccc(Cl)cc12 | -4.284 | 56.67
COCCn1ccc(=O)c(OCC(=O)Nc2ccc(OC)cc2)c1C | 20.21 | 53.75
Cl.Cl.c1ccc(NCc2cn3c(n2)CNCC3)nc1 | -25.29 | 17.86
Cc1cccc(C(C(=O)NCCn2cccc2)N(C)C)c1 (centres undefined) | 1.054 | -0.4362
Cc1nc(C2CCCN2C(=O)CCCn2cncn2)no1 (centres undefined) | -0.3808 | -
Cn1cc(C(=O)N2CCCCC2CCc2ccccc2)cn1 (centres undefined) | 8.579 | 26.47
CSCCC(NC(=O)c1nc(SC)ncc1Cl)C(=O)O (centres undefined) | -5.956 | -7.471
COc1ncccc1CN1Cc2nnn(C)c2C(COCC2CC2)C1.O=C(O)C(F)(F)F.O=C(O)C(F)(F)F (centres undefined) | -1.443 | 12.68
Cc1cnn(CCNCc2nc(-c3ccccn3)no2)c1 | -7.084 | -
CC1COCCN1Cc1nc(-c2ccsc2)no1 (centres undefined) | 2.714 | 34.64
Cc1cc2c(c(-c3cncc(C(=O)N4CCCC4)n3)c1)OC(CN)C2 (centres undefined) | -4.14 | 21.99
CCC(OC)C(=O)NCC1CCN(c2cnn(C)c(=O)c2)CC1 (centres undefined) | -6.839 | -16.19
O=C(O)c1cc(S(=O)(=O)Nc2cnn(C3CCOCC3)c2)ccc1F | 8.434 | 18.98
COc1ccc(C2CCCN2Cc2cnn(C)c2)cc1 (centres undefined) | 12.62 | 18.68
COc1c(CNC2CCc3cc(F)ccc32)c(C)nn1C.Cl (centres undefined) | 16.68 | 32.93
NC(=O)COc1cccc(C(=O)N2CCCC(n3cccn3)C2)c1 (centres undefined) | -15.1 | 1.286
CN1CCN(C(=O)c2occc2CN2C(=O)Cc3ccccc32)CC1 | -6.851 | -12.31
NS(=O)(=O)CCCNC(=O)C1(c2cccc(Cl)c2)CC1 | 13.29 | -
CC(c1nc(C2CC2)no1)N1CCN(Cc2cccnc2)CC1 (centres undefined) | 9.345 | 5.981
CC(C)Cc1cc(-c2cc(-c3ccc[nH]3)nc(N)c2C#N)n[nH]1 | 25.05 | 43.93
COCC(=O)N1CCC2(CC1)CC(N1CCOCC1)c1ccc(C)cc12 (centres undefined) | -18.87 | 8.065
Cc1ccsc1C(=O)N(C)Cc1ccncc1 | -7.13 | -
CCC(C)(CNC(=O)Nc1nccs1)N1CCOCC1 (centres undefined) | 1.808 | 20.81
[H][C@@]12C[C@H](C(=O)NC)[C@@]([H])(CN(C(=O)Nc3ccc(F)cc3)C1)O2 | -13.43 | 16.29
CCN(Cc1ccccc1)C(=O)CCN1CC(O)C1 | 12.27 | -
CCC(Cn1ccc2[nH]c(=O)c(C#N)cc2c1=O)OC (centres undefined) | -6.878 | -
CCOc1ccccc1N(C)C(=O)c1cscn1 | -7.528 | -
O=C(CN1CCc2c(ncn2C2CC2)C1)NC1CC1 | 4.417 | -
CN(C)c1cncc(C2CCCN2S(=O)(=O)c2cn(C)cn2)n1 (centres undefined) | 12.07 | -12.24
CN(C)c1ccc(CC(=O)N2C[C@H](C3CC3)[C@@H](N)C2)cc1 | -22.48 | -35.38
Cn1cccc1C(O)CNC(=O)c1cccc(Cl)c1 (centres undefined) | 16 | 49.37
CS(=O)(=O)NCc1cnc2n1CCN(Cc1ccoc1)CC2.O=C(O)C(F)(F)F | -43.89 | 2.31
Cc1n[nH]c(SCC(=O)N[C@@H](C)C(N)=O)n1 | 17.01 | 11.05
CC(C)c1noc(CCC(=O)NC2CCS(=O)(=O)C2)n1 (centres undefined) | -15.95 | -
CCC(CO)N(Cc1ccccn1)C(=O)c1ccc(=O)[nH]c1 (centres undefined) | 1.592 | -7.09
CN(CC(=O)NC(C)(C#N)C1CC1)Cc1nc2ccccc2n1C (centres undefined) | -4.228 | 1.318
O=C(NCCc1cccs1)N1CCC[C@H]1CO | 16.6 | -5.325
O=C(NCCn1cnc(C2CCCC2)cc1=O)c1ccc(=O)[nH]n1 | 8.492 | 11.19
Cc1ccc(CC(=O)NC(C)C(=O)N2CCS(=O)(=O)CC2)cc1 (centres undefined) | -3.626 | -
N#CCCN(CCN1CCOCC1)Cc1ccc(F)c(Br)c1 | -18.27 | 20.04

The last 7 entries again:

CC(C)c1noc(CCC(=O)NC2CCS(=O)(=O)C2)n1 (centres undefined) gave Mtb heat-shock: -15.95%.
CCC(CO)N(Cc1ccccn1)C(=O)c1ccc(=O)[nH]c1 (centres undefined) gave Mtb heat-shock: 1.592%; Mtb growth Cornell: -7.09%.
CN(CC(=O)NC(C)(C#N)C1CC1)Cc1nc2ccccc2n1C (centres undefined) gave Mtb heat-shock: -4.228%; Mtb growth Cornell: 1.318%.
O=C(NCCc1cccs1)N1CCC[C@H]1CO gave Mtb heat-shock: 16.6%; Mtb growth Cornell: -5.325%.
O=C(NCCn1cnc(C2CCCC2)cc1=O)c1ccc(=O)[nH]n1 gave Mtb heat-shock: 8.492%; Mtb growth Cornell: 11.19%.
Cc1ccc(CC(=O)NC(C)C(=O)N2CCS(=O)(=O)CC2)cc1 (centres undefined) gave Mtb heat-shock: -3.626%.
N#CCCN(CCN1CCOCC1)Cc1ccc(F)c(Br)c1 gave Mtb heat-shock: -18.27%; Mtb growth Cornell: 20.04%.